The target in this assay is T1, Ptf1a-Flag (flag-tagged Ptf1a) (UniProt Q9QX98).
T1 sequence: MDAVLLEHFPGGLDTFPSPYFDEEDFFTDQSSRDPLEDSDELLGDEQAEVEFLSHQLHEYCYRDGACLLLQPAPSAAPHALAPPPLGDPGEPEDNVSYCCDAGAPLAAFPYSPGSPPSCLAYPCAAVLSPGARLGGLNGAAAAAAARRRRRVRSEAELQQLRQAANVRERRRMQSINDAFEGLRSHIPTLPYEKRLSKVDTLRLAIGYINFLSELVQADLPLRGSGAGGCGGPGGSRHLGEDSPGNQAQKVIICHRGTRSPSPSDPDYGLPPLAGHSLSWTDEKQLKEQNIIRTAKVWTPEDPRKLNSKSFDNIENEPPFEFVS
The assay can be described thus: co-IP; Lysates of MEFs infected with Ptf1a-Flag (or control GFP) lentiviruses, collected at day 12, were incubated with anti-Flag resin at 4 °C overnight, washed with Tris-buffered saline and eluted with 3x Flag peptide; western blot with anti-Rbpj.

Amino acid sequences for entries named in this document (tags omitted).
UniProt P31266: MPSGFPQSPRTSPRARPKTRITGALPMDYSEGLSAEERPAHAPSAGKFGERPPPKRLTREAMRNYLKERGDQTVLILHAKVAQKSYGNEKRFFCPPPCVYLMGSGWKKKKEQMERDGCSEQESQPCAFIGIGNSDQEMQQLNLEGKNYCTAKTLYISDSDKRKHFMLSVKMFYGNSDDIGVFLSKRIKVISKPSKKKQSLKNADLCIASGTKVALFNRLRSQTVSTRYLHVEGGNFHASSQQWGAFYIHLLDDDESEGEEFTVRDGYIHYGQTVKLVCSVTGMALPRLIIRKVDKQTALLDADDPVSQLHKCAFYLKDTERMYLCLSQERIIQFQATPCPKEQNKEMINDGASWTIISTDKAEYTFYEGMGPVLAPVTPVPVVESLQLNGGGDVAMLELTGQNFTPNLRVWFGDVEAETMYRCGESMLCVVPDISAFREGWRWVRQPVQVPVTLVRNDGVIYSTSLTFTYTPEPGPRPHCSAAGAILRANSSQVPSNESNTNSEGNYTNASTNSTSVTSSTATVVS

No constants are given. Whether binding was seen depends on the method and setting. Binding seen in cells or lysates may run through a third protein. Some results given as binding are weak or reduced against the parent protein; the word gives no strength. Sequences can lack the tags named with a protein.

On to Rbpj (from UniProt P31266 1-526), for which the binding result is listed as “binds”.

(Values after publication PMC6054649.)
